Results on 2 molecules are retold here after PMC5404846.

Holding throughout (assay): two-hybrid; GAL4 DNA-binding domain baits (pDEST32) and GAL4 activation domain preys (pDEST22) co-transformed into S. cerevisiae MaV203; serial dilutions plated on SC-Leu-Trp and on SC-Leu-Trp-His with 12.5 mM 3-aminotriazole; repeated with separate transformations
Test [1] addresses T1, MEDIATOR8 (Arabidopsis thaliana (Col-0 cDNA)) (UniProt Q4V3C1).
T1 sequence: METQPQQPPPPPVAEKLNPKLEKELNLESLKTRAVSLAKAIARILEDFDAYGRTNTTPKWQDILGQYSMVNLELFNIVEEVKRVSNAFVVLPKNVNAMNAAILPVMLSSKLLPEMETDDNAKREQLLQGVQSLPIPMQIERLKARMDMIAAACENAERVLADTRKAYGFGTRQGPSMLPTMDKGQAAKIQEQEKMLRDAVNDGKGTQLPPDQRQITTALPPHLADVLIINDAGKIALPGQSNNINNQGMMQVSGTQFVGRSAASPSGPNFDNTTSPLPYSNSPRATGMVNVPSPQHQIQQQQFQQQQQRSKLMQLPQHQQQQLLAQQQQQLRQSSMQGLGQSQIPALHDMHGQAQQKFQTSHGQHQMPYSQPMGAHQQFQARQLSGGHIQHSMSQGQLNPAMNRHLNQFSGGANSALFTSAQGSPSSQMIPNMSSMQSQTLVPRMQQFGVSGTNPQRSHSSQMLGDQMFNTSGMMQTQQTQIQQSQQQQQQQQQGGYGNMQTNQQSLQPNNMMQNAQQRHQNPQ

Test [2] deals with T2, MEDIATOR18 (Arabidopsis thaliana (Col-0 cDNA)) (UniProt Q9SJZ6).
T2 sequence: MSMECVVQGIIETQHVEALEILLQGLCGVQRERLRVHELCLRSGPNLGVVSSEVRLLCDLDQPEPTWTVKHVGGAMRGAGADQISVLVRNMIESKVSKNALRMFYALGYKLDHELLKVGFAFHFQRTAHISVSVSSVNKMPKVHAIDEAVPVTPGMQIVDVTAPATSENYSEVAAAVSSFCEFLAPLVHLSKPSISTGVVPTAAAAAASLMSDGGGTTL

In test [3] the target is T3, MEDIATOR21 (Arabidopsis thaliana (Col-0 cDNA)) (UniProt C0LU16).
T3 sequence: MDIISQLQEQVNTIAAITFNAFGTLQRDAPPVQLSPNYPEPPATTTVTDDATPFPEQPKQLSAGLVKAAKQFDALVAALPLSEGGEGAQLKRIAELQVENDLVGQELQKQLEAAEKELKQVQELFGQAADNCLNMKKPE

Test [4] addresses MEDIATOR20 (Arabidopsis thaliana (Col-0 cDNA)).

These are yes or no findings as the source states them, for the method shown. For some of these results: Binding can be weak; no strength is given.

In the case of “MEDIATOR20 (Arabidopsis thaliana (Col-0 cDNA))”, the binding result was “no binding” in test [1], “binds” in test [2] and “no binding” in test [3].

B1: MEDIATOR18 (protein, UniProt Q9SJZ6 1-219)
chain: T2 sequence
Regarding B1, the binding result in test [4] is given as “binds”.
